According to PubChem BioAssay AID2685 (National Center for Advancing Translational Sciences (NCATS), 2010):
Some of the results follow. Shown are side measurements of this screen, not its main read-out; they come without a call. The list favours compounds with an active or inconclusive main result. Potencies come from curve fits of mixed quality, noted in brackets.

Test: qHTS Assay for Lipid Storage Modulators in Drosophila S3 Cells;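 as to cell number change: cells counted by Cell Tracker Red CMTPX staining in the red channel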
Conditions: BODIPY lipid droplet fluorescence, 18-24 h; for cell number change: measured here: cell count max response, cells fed with added oleic acid
How it was run: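 Laser-scanning cytometry quantifies lipid droplet accumulation (500–530 nm total intensity; droplet/cell object ratio) in oleic acid-fed (400 uM added) Drosophila S3 cells treated with a concentration series. 20 uM Triacsin C defined 100% inhibition.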

[1] = measured here: lipid fluorescence (Fed channel) AC50, cells fed with added oleic acid
[2] = measured here: cell number channel AC50, cells fed with added oleic acid

SMILES	cell number change	AC50 [1]	AC50 [2]
COc1cccc(NC(=O)CCC(=O)Nc2cc(OC)c(NC(=O)c3cccs3)cc2OC)c1	-17.3%	20600 nM [falling, partial curve]	
CCCOc1ccc(C2C(C(=O)c3ccc(C)o3)=C(O)C(=O)N2Cc2cccnc2)cc1 (stereo not given)	-4.61%	5.17 nM [falling, full curve, poor fit]	
O=C(Nc1ccc(S(=O)(=O)N2CCCC2)cc1)C1CC(=O)N(c2ccc(F)cc2)C1 (stereo not given)	1.9%		130 nM [rising, full curve, poor fit]
CCOC(=O)C1CCN(C(=O)CC(C)S(=O)(=O)c2ccc3c(c2)NC(=O)CO3)CC1 (stereo not given)	-20%	184 nM [rising, full curve]	
O=C(CSc1nc(C2CC2)nc2ccccc12)Nc1cccc(O)c1	21.3%	29100 nM [falling, single point]	
C[S+](CC[C@H](N)C(=O)O)C[C@H]1O[C@@H](n2cnc3c(N)ncnc32)[C@H](O)[C@@H]1O (stereo not given in full)	15.8%	164 nM [rising, full curve, poor fit]	206 nM [rising, full curve, poor fit]
O=C1NCC(COc2cccc3ccccc23)O1 (stereo not given)	98.6%		20600 nM [rising, single point]
Cc1nn(Cc2ccc(F)cc2)c(C)c1NC(=O)c1noc2c1CCc1ccccc1-2		411 nM [rising, full curve]	146 nM [rising, full curve, poor fit]
COC(=O)Cn1c(C)nc([N+](=O)[O-])c1Br	23.9%	580 nM [rising, partial curve, poor fit]	
O=C(NCc1cccs1)c1cc(-c2ccncc2)nc2ccc(Br)cc12	6.15%	20600 nM [falling, partial curve, poor fit]	
COc1cc(OC)c2c(c1)S(=O)(=O)C(c1ccccc1)=C2N	22.8%	5800 nM [rising, single point]	6510 nM [rising, single point]
COc1ccccc1NC(=O)c1cc(Sc2nncn2C)nc2ccccc12	13.6%	29100 nM [rising, single point]	
O=C(CN1C(=O)C2CC=CCC2C1=O)Nc1nc2ccc(F)cc2s1 (stereo not given)	-46.6%	116 nM [rising, full curve, poor fit]	
O=C(CSc1nnc(-c2cccs2)n1-c1ccccc1)N1CCCC1	21.8%		6510 nM [rising, single point]
Cc1nnc(SCC(=O)NNC(=O)c2ccco2)n1-c1cccc(Cl)c1	-9.68%	1460 nM [rising, partial curve]	1460 nM [rising, partial curve]
Cc1ccc(/C=N/Nc2ccccn2)s1	12.5%	18400 nM [rising, single point]	
Cc1ccc(NC(=O)CCC(=O)NNC(=S)Nc2ccc(F)cc2F)cc1C	-25.1%	251 nM [falling, partial curve]	

SMILES	cell number change	AC50 [1]	AC50 [2]
O=C(OCc1cc(=O)n2cc(Br)ccc2n1)C1COc2ccccc2O1 (stereo not given)	-21.8%	58 nM [falling, full curve, poor fit]	82 nM [falling, full curve, poor fit]
CCc1ccc(C(=O)COC(=O)C(Cc2ccccc2)NC(=O)c2ccc(Cl)cc2)cc1 (stereo not given)	-15.6%		
CCCn1c(SCC(=O)Nc2cccc(C(=O)OCC)c2)nnc1-c1ccoc1C	-5.49%	731 nM [rising, full curve, poor fit]	
COc1ccc(Cn2cc([N+](=O)[O-])nc2C)cc1[N+](=O)[O-]	34.8%	259 nM [rising, full curve, poor fit]	291 nM [rising, full curve, poor fit]
CN(CC(=O)Nc1ccc(F)cc1)C(=O)c1cc([N+](=O)[O-])ccc1N1CCOCC1		73.1 nM [rising, full curve, poor fit]	
Cc1nc2cc(NC(=O)CS(=O)(=O)c3ccc(F)cc3)ccc2s1		4.61 nM [rising, full curve, poor fit]	731 nM [rising, partial curve, poor fit]
CC(=O)N(C)c1ccc(N=Cc2c(O)ccc3ccccc23)cc1	-26.7%	14600 nM [falling, partial curve, poor fit]	
COc1cc(OC)c2ccc(=O)oc2c1C(CC(=O)N1CCCC(C)C1)c1ccc2c(c1)OCO2 (stereo not given)	18.4%	517 nM [rising, full curve]	
O=C(CSc1nnc(SCc2ccccc2)s1)N/N=C/c1c[nH]c2ccccc12	-69.6%	29100 nM [falling, single point]	20600 nM [falling, single point]
O=C1[C@@H]2Cc3c([nH]c4ccccc34)[C@@H](c3ccccc3)N2C(=O)[C@@H]2Cc3c([nH]c4ccccc34)[C@@H](c3ccccc3)N12	-32.8%	5170 nM [falling, full curve]	6510 nM [falling, partial curve]
Cc1ccc(S(=O)(=O)NCCC(=O)NNC(=O)COc2ccccc2Cl)cc1C	31.8%	58 nM [rising, full curve, poor fit]	29100 nM [rising, single point]
COc1ccc(C(=O)c2oc3ccc(Br)cc3c2NC(C)=O)cc1	-20.7%	7310 nM [falling, partial curve, poor fit]	
COc1ccc(OCC(=O)Nc2c3c(nn2C(C)(C)C)CS(=O)(=O)C3)cc1	3.46%		
O=C(CC1(O)C(=O)Nc2ccccc21)c1ccccc1O (stereo not given)	-27.7%	1030 nM [falling, partial curve]	
CSc1nc2ccccc2c(=O)n1Cc1ccc(F)cc1	49.3%		20600 nM [rising, partial curve, poor fit]
O=C(/C=C/c1cccc([N+](=O)[O-])c1)c1ccco1		9200 nM [falling, single point]	

Some of these compounds in order of length of the SMILES, smallest number first.
SMILES	cell number change	AC50 [1]	AC50 [2]
O=C(CC1(O)C(=O)Nc2ccccc21)c1ccccc1O (stereo not given)	-27.7%	1030 nM [falling, partial curve]	
O=C(/C=C/c1cccc([N+](=O)[O-])c1)c1ccco1		9200 nM [falling, single point]	
Cc1nc2cc(NC(=O)CS(=O)(=O)c3ccc(F)cc3)ccc2s1		4.61 nM [rising, full curve, poor fit]	731 nM [rising, partial curve, poor fit]
